Here are results for twelve molecules from publication PMC11171801.

Sequences of proteins named here, by UniProt entry; tags and fusion partners are left off.
UniProt Q96PY5: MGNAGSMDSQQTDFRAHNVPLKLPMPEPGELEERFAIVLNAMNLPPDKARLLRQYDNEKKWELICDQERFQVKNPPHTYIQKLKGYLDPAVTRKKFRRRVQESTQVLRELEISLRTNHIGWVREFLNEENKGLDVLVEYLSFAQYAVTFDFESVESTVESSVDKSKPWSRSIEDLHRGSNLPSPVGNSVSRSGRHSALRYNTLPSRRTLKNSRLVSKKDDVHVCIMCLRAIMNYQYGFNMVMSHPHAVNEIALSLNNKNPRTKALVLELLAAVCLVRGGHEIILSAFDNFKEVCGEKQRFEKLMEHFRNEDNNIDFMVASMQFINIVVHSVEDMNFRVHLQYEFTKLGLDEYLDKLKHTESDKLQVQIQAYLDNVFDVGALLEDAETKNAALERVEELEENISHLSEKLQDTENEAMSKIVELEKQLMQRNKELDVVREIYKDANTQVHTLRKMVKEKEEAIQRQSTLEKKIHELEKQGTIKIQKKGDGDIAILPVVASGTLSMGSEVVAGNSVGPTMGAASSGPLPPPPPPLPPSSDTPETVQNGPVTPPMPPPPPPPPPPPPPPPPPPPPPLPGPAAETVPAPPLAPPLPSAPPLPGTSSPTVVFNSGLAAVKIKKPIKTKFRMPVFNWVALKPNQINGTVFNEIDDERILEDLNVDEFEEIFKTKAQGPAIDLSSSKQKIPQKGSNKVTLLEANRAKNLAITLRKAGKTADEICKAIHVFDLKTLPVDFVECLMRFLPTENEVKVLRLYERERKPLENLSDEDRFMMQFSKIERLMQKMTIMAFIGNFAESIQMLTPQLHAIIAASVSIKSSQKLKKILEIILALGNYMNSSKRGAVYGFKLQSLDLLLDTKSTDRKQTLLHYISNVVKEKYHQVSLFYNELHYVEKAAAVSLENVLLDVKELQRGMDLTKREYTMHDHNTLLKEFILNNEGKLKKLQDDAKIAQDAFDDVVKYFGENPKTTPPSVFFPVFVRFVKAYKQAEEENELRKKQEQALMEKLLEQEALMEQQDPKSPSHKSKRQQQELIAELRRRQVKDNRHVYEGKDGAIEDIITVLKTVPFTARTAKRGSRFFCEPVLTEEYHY
UniProt Q7KZI7: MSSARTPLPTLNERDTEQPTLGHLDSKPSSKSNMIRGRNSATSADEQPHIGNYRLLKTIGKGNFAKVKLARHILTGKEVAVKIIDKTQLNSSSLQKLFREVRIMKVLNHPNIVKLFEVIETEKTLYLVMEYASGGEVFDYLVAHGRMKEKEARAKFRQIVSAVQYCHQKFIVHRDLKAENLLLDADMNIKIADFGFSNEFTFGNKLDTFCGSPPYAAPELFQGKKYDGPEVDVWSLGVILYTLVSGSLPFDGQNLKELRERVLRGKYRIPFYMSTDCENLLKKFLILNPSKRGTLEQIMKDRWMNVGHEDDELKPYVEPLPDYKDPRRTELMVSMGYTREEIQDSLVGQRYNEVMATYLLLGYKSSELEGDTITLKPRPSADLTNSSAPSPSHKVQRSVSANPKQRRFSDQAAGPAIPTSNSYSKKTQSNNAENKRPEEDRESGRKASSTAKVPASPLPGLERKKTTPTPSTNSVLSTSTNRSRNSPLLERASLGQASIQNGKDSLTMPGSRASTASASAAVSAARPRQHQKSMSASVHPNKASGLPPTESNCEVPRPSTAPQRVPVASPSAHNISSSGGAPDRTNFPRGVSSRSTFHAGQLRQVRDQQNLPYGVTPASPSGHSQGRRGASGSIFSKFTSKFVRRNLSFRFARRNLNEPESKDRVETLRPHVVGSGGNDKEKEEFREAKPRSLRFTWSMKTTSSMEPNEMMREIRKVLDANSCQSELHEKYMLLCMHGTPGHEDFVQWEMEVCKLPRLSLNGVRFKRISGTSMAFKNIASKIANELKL
UniProt Q9Y5S2: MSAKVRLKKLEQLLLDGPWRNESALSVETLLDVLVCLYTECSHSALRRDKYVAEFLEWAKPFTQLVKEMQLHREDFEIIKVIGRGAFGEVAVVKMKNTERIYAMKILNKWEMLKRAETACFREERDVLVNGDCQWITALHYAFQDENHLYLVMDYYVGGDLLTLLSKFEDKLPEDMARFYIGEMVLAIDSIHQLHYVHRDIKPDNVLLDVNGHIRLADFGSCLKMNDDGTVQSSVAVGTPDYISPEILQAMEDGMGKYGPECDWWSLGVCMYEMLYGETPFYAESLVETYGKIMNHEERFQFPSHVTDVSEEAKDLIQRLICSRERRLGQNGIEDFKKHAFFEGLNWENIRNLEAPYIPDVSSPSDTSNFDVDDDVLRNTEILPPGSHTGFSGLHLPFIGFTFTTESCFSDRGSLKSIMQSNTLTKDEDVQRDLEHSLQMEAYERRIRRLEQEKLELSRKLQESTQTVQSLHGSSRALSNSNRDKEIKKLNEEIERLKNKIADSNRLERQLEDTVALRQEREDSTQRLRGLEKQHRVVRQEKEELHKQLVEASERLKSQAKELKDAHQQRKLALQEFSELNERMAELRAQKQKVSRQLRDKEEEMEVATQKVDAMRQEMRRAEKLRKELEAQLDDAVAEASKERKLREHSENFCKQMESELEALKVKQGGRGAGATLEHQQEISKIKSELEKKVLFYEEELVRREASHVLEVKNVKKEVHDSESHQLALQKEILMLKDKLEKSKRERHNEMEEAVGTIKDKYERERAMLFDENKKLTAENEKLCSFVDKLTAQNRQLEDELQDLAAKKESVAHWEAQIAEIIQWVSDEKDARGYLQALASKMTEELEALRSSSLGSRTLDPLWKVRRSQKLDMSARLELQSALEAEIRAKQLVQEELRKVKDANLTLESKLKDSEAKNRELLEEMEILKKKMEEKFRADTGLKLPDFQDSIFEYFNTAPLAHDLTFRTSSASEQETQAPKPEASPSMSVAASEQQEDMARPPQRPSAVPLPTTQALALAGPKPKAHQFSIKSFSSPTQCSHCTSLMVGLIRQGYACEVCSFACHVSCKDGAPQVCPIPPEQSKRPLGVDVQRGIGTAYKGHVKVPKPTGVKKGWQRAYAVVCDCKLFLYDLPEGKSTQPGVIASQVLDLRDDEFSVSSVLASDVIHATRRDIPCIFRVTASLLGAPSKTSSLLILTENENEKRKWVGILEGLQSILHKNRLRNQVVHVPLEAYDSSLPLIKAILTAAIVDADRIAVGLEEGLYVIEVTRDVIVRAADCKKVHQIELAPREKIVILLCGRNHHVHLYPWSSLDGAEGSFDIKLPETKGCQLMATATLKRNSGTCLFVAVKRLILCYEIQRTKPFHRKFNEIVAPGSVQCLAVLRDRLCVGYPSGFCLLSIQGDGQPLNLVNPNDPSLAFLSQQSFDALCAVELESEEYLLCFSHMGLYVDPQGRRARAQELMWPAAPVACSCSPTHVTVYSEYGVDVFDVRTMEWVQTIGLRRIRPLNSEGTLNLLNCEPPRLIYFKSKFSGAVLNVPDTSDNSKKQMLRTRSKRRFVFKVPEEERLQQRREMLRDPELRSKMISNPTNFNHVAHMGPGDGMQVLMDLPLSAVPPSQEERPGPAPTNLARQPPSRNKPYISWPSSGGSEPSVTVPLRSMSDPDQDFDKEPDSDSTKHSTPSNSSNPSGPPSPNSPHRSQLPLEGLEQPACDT
UniProt P63027: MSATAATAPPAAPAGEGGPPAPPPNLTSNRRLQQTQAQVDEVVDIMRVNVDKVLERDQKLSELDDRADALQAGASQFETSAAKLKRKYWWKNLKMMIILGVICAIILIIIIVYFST
UniProt Q15836: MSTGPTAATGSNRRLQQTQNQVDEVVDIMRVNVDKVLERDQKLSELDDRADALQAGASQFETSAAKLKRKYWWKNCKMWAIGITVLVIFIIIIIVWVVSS
UniProt Q14247: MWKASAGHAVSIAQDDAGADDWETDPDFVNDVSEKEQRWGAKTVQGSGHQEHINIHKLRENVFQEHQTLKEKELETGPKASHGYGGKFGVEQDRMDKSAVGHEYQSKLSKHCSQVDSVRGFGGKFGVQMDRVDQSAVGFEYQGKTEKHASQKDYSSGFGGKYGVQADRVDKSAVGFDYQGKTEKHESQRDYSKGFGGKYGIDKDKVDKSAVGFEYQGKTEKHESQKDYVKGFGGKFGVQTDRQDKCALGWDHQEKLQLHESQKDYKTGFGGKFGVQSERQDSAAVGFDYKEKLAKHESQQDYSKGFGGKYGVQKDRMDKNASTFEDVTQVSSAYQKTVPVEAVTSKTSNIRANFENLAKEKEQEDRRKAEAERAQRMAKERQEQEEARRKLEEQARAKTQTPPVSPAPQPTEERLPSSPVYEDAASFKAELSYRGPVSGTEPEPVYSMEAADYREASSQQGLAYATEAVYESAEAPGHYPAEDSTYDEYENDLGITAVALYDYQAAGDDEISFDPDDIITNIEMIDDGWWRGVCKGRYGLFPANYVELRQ

The target of test [1] is FMNL2-birA* fusion protein (human) (UniProt Q96PY5). Nature of the test: proximity labelling; BioID validation: tagged candidate coexpressed with FMNL2-birA* in HEK293T/17, overnight biotin, lysis in Co-IP buffer (50 mM Tris pH 7.0, 150 mM NaCl, 0.5% Triton-X-100), precipitated with GFP-trap beads (MARK2: anti-DYKDDDDK beads), biotinylation detected with ….
For test [2] the target is unchanged. Nature of the test: proximity labelling; BioID screen with SILAC: FMNL2-birA* (Heavy) against FMNL2-mCherry control (Light), transiently expressed in HEK293T/17; 50 μM biotin for 16 h; low-salt RIPA lysate; streptavidin-agarose capture; in-gel trypsin digest and LC-MS/MS; hits with SILAC ratios twofold above the median, filtered for known contaminants.

These are yes or no findings as the source states them, for the method shown. In cells and extracts the contact can be indirect. These calls come from enrichment with a bait or labelling near it, and not all partners need be listed. For part of these data: Where a sequence is shown, tags or fusion partners need not be part of it.

For the molecule “FLAG-tagged MARK2 (from UniProt Q7KZI7 1-788)”, the binding entry in test [1] is given as “binds”. On the same count and under the same terms, to “GFP-tagged CDC42BPB (pEGFP-N1-Cdc42BPB) (from UniProt Q9Y5S2 1-1711)” belongs “binds”.

Consider “GFP-tagged VAMP2 (pEGFP VAMP2) (from UniProt P63027 1-116)”, for which, in test [1], the binding result is reported as “binds”. Same read-out and setting: to “GFP-tagged VAMP3 (pEGFP VAMP3) (from UniProt Q15836 1-100)” belongs “binds”; to “GFP-tagged cortactin (pGFP Cortactin) (from UniProt Q14247 1-550)”, “binds”.

B1: RAI14 (protein, UniProt Q9P0K7 1-980)
chain: MKSLKAKFRKSDTNEWNKNDDRLLQAVENGDAEKVASLLGKKGASATKHDSEGKTAFHLAAAKGHVECLRVMITHGVDVTAQDTTGHSALHLAAKNSHHECIRKLLQSKCPAESVDSSGKTALHYAAAQGCLQAVQILCEHKSPINLKDLDGNIPLLLAVQNGHSEICHFLLDHGADVNSRNKSGRTALMLACEIGSSNAVEALIKKGADLNLVDSLGYNALHYSKLSENAGIQSLLLSKISQDADLKTPTKPKQHDQVSKISSERSGTPKKRKAPPPPISPTQLSDVSSPRSITSTPLSGKESVFFAEPPFKAEISSIRENKDRLSDSTTGADSLLDISSEADQQDLLSLLQAKVASLTLHNKELQDKLQAKSPKEAEADLSFDSYHSTQTDLGPSLGKPGETSPPDSKSSPSVLIHSLGKSTTDNDVRIQQLQEILQDLQKRLESSEAERKQLQVELQSRRAELVCLNNTEISENSSDLSQKLKETQSKYEEAMKEVLSVQKQMKLGLVSPESMDNYSHFHELRVTEEEINVLKQDLQNALEESERNKEKVRELEEKLVEREKGTVIKPPVEEYEEMKSSYCSVIENMNKEKAFLFEKYQEAQEEIMKLKDTLKSQMTQEASDEAEDMKEAMNRMIDELNKQVSELSQLYKEAQAELEDYRKRKSLEDVTAEYIHKAEHEKLMQLTNVSRAKAEDALSEMKSQYSKVLNELTQLKQLVDAQKENSVSITEHLQVITTLRTAAKEMEEKISNLKEHLASKEVEVAKLEKQLLEEKAAMTDAMVPRSSYEKLQSSLESEVSVLASKLKESVKEKEKVHSEVVQIRSEVSQVKREKENIQTLLKSKEQEVNELLQKFQQAQEELAEMKRYAESSSKLEEDKDKKINEMSKEVTKLKEALNSLSQLSYSTSSSKRQSQQLEALQQQVKQLQNQLAECKKQHQEVISVYRMHLLYAVQGQMDEDVQKVLKQILTMCKNQSQKK
B1: the binding result in test [2] is listed as “binds”.

B2: EGFP-RAI14 (protein, UniProt Q9P0K7 1-980)
chain: B1 chain
Consider B2, for which the binding result in test [1] was “binds”.

B3: CTNND1 (protein, UniProt O60716 1-968)
chain: MDDSEVESTASILASVKEQEAQFEKLTRALEEERRHVSAQLERVRVSPQDANPLMANGTLTRRHQNGRFVGDADLERQKFSDLKLNGPQDHSHLLYSTIPRMQEPGQIVETYTEEDPEGAMSVVSVETSDDGTTRRTETTVKKVVKTVTTRTVQPVAMGPDGLPVDASSVSNNYIQTLGRDFRKNGNGGPGPYVGQAGTATLPRNFHYPPDGYSRHYEDGYPGGSDNYGSLSRVTRIEERYRPSMEGYRAPSRQDVYGPQPQVRVGGSSVDLHRFHPEPYGLEDDQRSMGYDDLDYGMMSDYGTARRTGTPSDPRRRLRSYEDMIGEEVPSDQYYWAPLAQHERGSLASLDSLRKGGPPPPNWRQPELPEVIAMLGFRLDAVKSNAAAYLQHLCYRNDKVKTDVRKLKGIPVLVGLLDHPKKEVHLGACGALKNISFGRDQDNKIAIKNCDGVPALVRLLRKARDMDLTEVITGTLWNLSSHDSIKMEIVDHALHALTDEVIIPHSGWEREPNEDCKPRHIEWESVLTNTAGCLRNVSSERSEARRKLRECDGLVDALIFIVQAEIGQKDSDSKLVENCVCLLRNLSYQVHREIPQAERYQEAAPNVANNTGPHAASCFGAKKGKDEWFSRGKKPIEDPANDTVDFPKRTSPARGYELLFQPEVVRIYISLLKESKTPAILEASAGAIQNLCAGRWTYGRYIRSALRQEKALSAIADLLTNEHERVVKAASGALRNLAVDARNKELIGKHAIPNLVKNLPGGQQNSSWNFSEDTVISILNTINEVIAENLEAAKKLRETQGIEKLVLINKSGNRSEKEVRAAALVLQTIWGYKELRKPLEKEGWKKSDFQVNLNNASRSQSSHSYDDSTLPLIDRNQKSDKKPDREEIQMSNMGSNTKSLDNNYSTPNERGDHNRTLDRSGDLGDMEPLKGTTPLMQDEGQESLEEELDVLVLDDEGGQVSYPSMQKI
On to B3, for which the binding result in test [2] is given as “binds”.

B4: FLOT1 (protein, UniProt O75955 1-427)
chain: MFFTCGPNEAMVVSGFCRSPPVMVAGGRVFVLPCIQQIQRISLNTLTLNVKSEKVYTRHGVPISVTGIAQVKIQGQNKEMLAAACQMFLGKTEAEIAHIALETLEGHQRAIMAHMTVEEIYKDRQKFSEQVFKVASSDLVNMGISVVSYTLKDIHDDQDYLHSLGKARTAQVQKDARIGEAEAKRDAGIREAKAKQEKVSAQYLSEIEMAKAQRDYELKKAAYDIEVNTRRAQADLAYQLQVAKTKQQIEEQRVQVQVVERAQQVAVQEQEIARREKELEARVRKPAEAERYKLERLAEAEKSQLIMQAEAEAASVRMRGEAEAFAIGARARAEAEQMAKKAEAFQLYQEAAQLDMLLEKLPQVAEEISGPLTSANKITLVSSGSGTMGAAKVTGEVLDILTRLPESVERLTGVSISQVNHKPLRTA
In the case of B4, in test [2], the binding entry was “binds”.

B5: JUP (protein, UniProt P14923 1-745)
chain: MEVMNLMEQPIKVTEWQQTYTYDSGIHSGANTCVPSVSSKGIMEEDEACGRQYTLKKTTTYTQGVPPSQGDLEYQMSTTARAKRVREAMCPGVSGEDSSLLLATQVEGQATNLQRLAEPSQLLKSAIVHLINYQDDAELATRALPELTKLLNDEDPVVVTKAAMIVNQLSKKEASRRALMGSPQLVAAVVRTMQNTSDLDTARCTTSILHNLSHHREGLLAIFKSGGIPALVRMLSSPVESVLFYAITTLHNLLLYQEGAKMAVRLADGLQKMVPLLNKNNPKFLAITTDCLQLLAYGNQESKLIILANGGPQALVQIMRNYSYEKLLWTTSRVLKVLSVCPSNKPAIVEAGGMQALGKHLTSNSPRLVQNCLWTLRNLSDVATKQEGLESVLKILVNQLSVDDVNVLTCATGTLSNLTCNNSKNKTLVTQNSGVEALIHAILRAGDKDDITEPAVCALRHLTSRHPEAEMAQNSVRLNYGIPAIVKLLNQPNQWPLVKATIGLIRNLALCPANHAPLQEAAVIPRLVQLLVKAHQDAQRHVAAGTQQPYTDGVRMEEIVEGCTGALHILARDPMNRMEIFRLNTIPLFVQLLYSSVENIQRVAAGVLCELAQDKEAADAIDAEGASAPLMELLHSRNEGTATYAAAVLFRISEDKNPDYRKRVSVELTNSLFKHDPAAWEAAQSMIPINEPYGDDMDATYRPMYSSDVPLDPLEMHMDMDGDYPIDTYSDGLRPPYPTADHMLA
For the molecule B5, the binding entry in test [2] is “binds”.

B6: YKT6 (protein, UniProt O15498 1-198)
chain: MKLYSLSVLYKGEAKVVLLKAAYDVSSFSFFQRSSVQEFMTFTSQLIVERSSKGTRASVKEQDYLCHVYVRNDSLAGVVIADNEYPSRVAFTLLEKVLDEFSKQVDRIDWPVGSPATIHYPALDGHLSRYQNPREADPMTKVQAELDETKIILHNTMESLLERGEKLDDLVSKSEVLGTQSKAFYKTARKQNSCCAIM
For the molecule B6, the binding entry in test [2] is listed as “binds”.

B7: PHACTR4 (protein, UniProt Q8IZ21 1-702)
chain: MEDPFEEADQPTTEPGMVLDSVEAGDTTPPTKRKSKFSGFGKIFKPWKWRKKKSSDKFKETSEVLERKISMRKPREELVKRGVLLEDPEQGGEDPGKPSDAMLKNGHTTPIGNARSSSPVQVEEEPVRLASLRKAIPEEDLKKRLGSTGSQPNSEAESVPENVPKPPLLPPKRPLSSSHEASEGQAKDATSSGGTARFIISTSITTAPAATTAATSLAKTVNLSVTPSPAPRTLPAAPASTNTTATPSLTHMVPAKQPPIPPPKPAHRNSNPVIAELSQAINSGTLLSKPSPPLPPKRGIPSTSVPTLESAAAITTKTPSDEREKSTCSMGSELLPMISPRSPSPPLPTHIPPEPPRTPPFPAKTFQVVPEIEFPPSLDLHQEIPQQEDQKKEVPKRILDQNFGEPHIPSRLPPLPLHIRIQQALTSPLPMTPILEGSHRAHSLLFENSDSFSEDSSTLGRTRSLPITIEMLKVPDDEEEEEQTCPSTFSEEMTPTSVIPKLPQCLREEEEKESDSDSEGPIQYRDEEDEDESYQSALANKVKRKDTLAMKLNHRPSEPELNLNSWPCKSKEEWNEIRHQIGNTLIRRLSQRPTPEELEQRNILQPKNEADRQAEKREIKRRLTRKLSQRPTVAELLARKILRFNEYVEVTDAQDYDRRADKPWTKLTPADKAAIRKELNEFKSSEMEVHEESKHFTRYHRP
As to B7, the binding entry in test [2] is “binds”.
